Measured values published in patent US10857167B2, “Use of oligosaccharide compositions to enhance weight gain” (Children's Hospital Medical Center, priority 2015, dated 2020).
The source gives many values for each of these; only a part stands here.

Tested on: distal small bowel gene expression
Assay: RNA sequencing / transcriptional analysis of small bowel 56 days after ICR (2′-FL signature response)
Assay type: in vivo, mouse
Description: Luminal small bowel contents were expressed into AllProtect Tissue Reagent (Qiagen Inc, CA). Bacterial DNA was extracted using the AllPrep DNA/RNA Mini Kit (Qiagen Inc, CA), according to kit instructions and prior to sequencing (described below). Small bowel tissue samples for RNA were placed into RNA Later (Life Technologies, NY). RNA extraction was accomplished following Qiagen RNeasy Plus Kit instruction (Qiagen Inc, CA). All nucleic acid samples were then stored at -80 Celsius until sequenced (described below). Transcriptional analysis was carried out on resected and harvested small bowel samples obtained from operated mice taken to 8 weeks. Murine RNA sequencing libraries were prepared from approximately 1.5 μg RNA using the TruSeq RNA Sample Preparation Kit (Illumina, Calif.) and sequenced using the HiSeq 2000 Sequencing System (Illumina, Calif.) with single-end 50 bp reads. Following removal of primers and barcodes, sequences were aligned to the mm10 genome using reference annotations from UCSC (Rosenbloom et al. (2015) Nucleic acids research 43: […]-681) (n=36,186 entities). Aligned reads were quantified and used to compute reads per kilobase per million mapped reads (RPKM); raw counts were then normalized using the DESeq algorithm and each harvested sample was baselined to its own resected sample. A filter was applied to the data, requiring at least three reads in all samples of at least one of the four experimental conditions (n=14,489 entities). The data discussed in this publication have been deposited in NCBI's Gene Expression Omnibus and are accessible through NCBI Gene Expression Omnibus (GEO) Series accession number GSE72590. Edgar et al. (2002) Nucleic acids research 30: 207-210. In order to characterize the impact of 2'-FL supplementation while accounting for the effect of ileoecal resection, a t-test was applied between resected and harvested samples within control and experimental animals. Significance was set at a p-value of ≤0.05 and a fold change of 3, which generated 2,576 differentially regulated entities across two comparisons. Gene set unions and intersections of the control and experimental gene sets were identified through Venn diagrams. From the master list, the gene list specific to animals supplemented with 2'-FL were removed in order to identify genes differentially regulated only by ICR (n=546 entities); this gene set characterizes the adaptive response. Further, the 2'-FL response (n=2,030 entities) was identified by removing the adaptive response signature described above from the master list, leaving only genes regulated by 2'-FL supplementation after ICR which were not found in the non-supplemented adaptive response. Heatmaps were generated using hierarchical clustering with the Pearson's Centered distance metric and the average linkage rule; both entities and samples were clustered. All genomic analyses described above were performed in Strand NGS (Strand Life Sciences, CA). Gene list functional enrichment was initially discovered using ToppFun, a member of the ToppGene Suite. Chen et al. (2009) Nucleic acids research 37: […]-311. No statistical correction was selected. Gene lists were further analyzed using ClueGO, a plugin for Cytoscape designed to decipher functionally grouped gene ontology and pathway annotation networks. Bindea et al. (2009) Bioinformatics 25: 1091-1093. At the time of data analysis, the annotation files were updated from sources to Jan. 1, 2015. “GO Term Fusion” was enabled to manage ontologic term redundancy and network specificity was set to medium. Results were restricted to pathways with p≤0.05 using Benjamini-Hochberg correction and Kappa scoring was set to 0.4. Biocyc annotations were assigned a rectangle, gene ontology biologic processes were assigned an ellipse, and […] annotations were assigned a diamond shape. No meaning was assigned to size or color. […]

## C[C@@H]1O[C@@H](O[C@H]2[C@H](O[C@H]3[C@H](O)[C@@H](O)C(O)O[C@@H]3CO)O[C@H](CO)[C@H](O)[C@@H]2O)[C@@H](O)[C@H](O)[C@@H]1O (stereo partly drawn) [2′-FL, 2′-fucosyllactose]
P2ry10
  Fold Change (Pre- to Post-op): 3.204
Pafah1b3
  Fold Change (Pre- to Post-op): 3.318
Pam16
  Fold Change (Pre- to Post-op): 3.406
Pbx4
  Fold Change (Pre- to Post-op): 9.262
Pcbd2
  Fold Change (Pre- to Post-op): 3.483
Pdcd6
  Fold Change (Pre- to Post-op): 3.622
Pdcd10
  Fold Change (Pre- to Post-op): 5.04
Pet100
  Fold Change (Pre- to Post-op): 5.568
Pex2
  Fold Change (Pre- to Post-op): 3.147
Pfdn1
  Fold Change (Pre- to Post-op): 3.358
Pfdn5
  Fold Change (Pre- to Post-op): 3.849
Phgr1
  Fold Change (Pre- to Post-op): 4.116
Phlda2
  Fold Change (Pre- to Post-op): 4.564
Phospho2
  Fold Change (Pre- to Post-op): 3.647
Pigf
  Fold Change (Pre- to Post-op): 3.784
Pih1d2
  Fold Change (Pre- to Post-op): 3.729
Pla2g12b
  Fold Change (Pre- to Post-op): 3.344
Pla2g16
  Fold Change (Pre- to Post-op): 3.171
Plac8
  Fold Change (Pre- to Post-op): 3.345
Plac9a
  Fold Change (Pre- to Post-op): 3.371
Plac9b
  Fold Change (Pre- to Post-op): 3.371
Pmvk
  Fold Change (Pre- to Post-op): 5.014
Pold4
  Fold Change (Pre- to Post-op): 3.168
Polr2i
  Fold Change (Pre- to Post-op): 3.189
Polr2j
  Fold Change (Pre- to Post-op): 3.219
Polr2k
  Fold Change (Pre- to Post-op): 5.389
Polr1d
  Fold Change (Pre- to Post-op): 3.231
Pomp
  Fold Change (Pre- to Post-op): 3.398
Ppih
  Fold Change (Pre- to Post-op): 4.322
Ppp1r14d
  Fold Change (Pre- to Post-op): 3.701
Prap1
  Fold Change (Pre- to Post-op): 3.981
Prdx1
  Fold Change (Pre- to Post-op): 3.381
Prdx2
  Fold Change (Pre- to Post-op): 3.842
Prdx5
  Fold Change (Pre- to Post-op): 4.089
Prg2
  Fold Change (Pre- to Post-op): 5.919
Prkrip1
  Fold Change (Pre- to Post-op): 3.005
Prorsd1
  Fold Change (Pre- to Post-op): 3.258
Prrx1
  Fold Change (Pre- to Post-op): 5.165
Prss16
  Fold Change (Pre- to Post-op): 3.968
Psma3
  Fold Change (Pre- to Post-op): 3.177
Psma5
  Fold Change (Pre- to Post-op): 3.049
Psma6
  Fold Change (Pre- to Post-op): 3.67
Psma7
  Fold Change (Pre- to Post-op): 5.538
Psmb9
  Fold Change (Pre- to Post-op): 3.059
Psmd10
  Fold Change (Pre- to Post-op): 3.428
Psmd14
  Fold Change (Pre- to Post-op): 3.822
Psme2
  Fold Change (Pre- to Post-op): 3.156
Psmg4
  Fold Change (Pre- to Post-op): 3.559
Ptges3l
  Fold Change (Pre- to Post-op): 3.396
Ptgis
  Fold Change (Pre- to Post-op): 3.03
Pthlh
  Fold Change (Pre- to Post-op): 3.335
Ptpmt1
  Fold Change (Pre- to Post-op): 3.707
Ptrh1
  Fold Change (Pre- to Post-op): 4.615
Pts
  Fold Change (Pre- to Post-op): 3.997
Pycard
  Fold Change (Pre- to Post-op): 4.268
Rab9
  Fold Change (Pre- to Post-op): 3.857
Ran
  Fold Change (Pre- to Post-op): 3.251
Rap1b
  Fold Change (Pre- to Post-op): 3.368
Rasl2-9
  Fold Change (Pre- to Post-op): 3.267
Rbm3
  Fold Change (Pre- to Post-op): 3.647
Rbm7
  Fold Change (Pre- to Post-op): 3.27
Rbp2
  Fold Change (Pre- to Post-op): 3.383
Rbp7
  Fold Change (Pre- to Post-op): 4.897
Rdh16
  Fold Change (Pre- to Post-op): 3.631
Reg1
  Fold Change (Pre- to Post-op): 3.362
Reg3d
  Fold Change (Pre- to Post-op): 5.356
Rgs17
  Fold Change (Pre- to Post-op): 3.385
Rhebl1
  Fold Change (Pre- to Post-op): 4.307
Rhoc
  Fold Change (Pre- to Post-op): 3.67
Rhod
  Fold Change (Pre- to Post-op): 4.302
Rmdn1
  Fold Change (Pre- to Post-op): 3.757
Rnd2
  Fold Change (Pre- to Post-op): 5.174
Rnf7
  Fold Change (Pre- to Post-op): 3.146
Romo1
  Fold Change (Pre- to Post-op): 3.798
Rpa3
  Fold Change (Pre- to Post-op): 4.327
Rpl5
  Fold Change (Pre- to Post-op): 3.662
Rpl9
  Fold Change (Pre- to Post-op): 4.323
Rpl10a
  Fold Change (Pre- to Post-op): 3.175
Rpl11
  Fold Change (Pre- to Post-op): 3.363
Rpl12
  Fold Change (Pre- to Post-op): 3.568
Rpl13a
  Fold Change (Pre- to Post-op): 4.834
Rpl17
  Fold Change (Pre- to Post-op): 4.619
Rpl19
  Fold Change (Pre- to Post-op): 3.266
Rpl22l1
  Fold Change (Pre- to Post-op): 3.846
Rpl27
  Fold Change (Pre- to Post-op): 3.19
Rpl27a
  Fold Change (Pre- to Post-op): 3.001
Rpl32
  Fold Change (Pre- to Post-op): 3.449
Rpl35
  Fold Change (Pre- to Post-op): 4.283
Rpl35a
  Fold Change (Pre- to Post-op): 4.542
Rpl36
  Fold Change (Pre- to Post-op): 4.099
Rpl39
  Fold Change (Pre- to Post-op): 3.252
Rpl41
  Fold Change (Pre- to Post-op): 5.464
Rplp0
  Fold Change (Pre- to Post-op): 3.47
Rps3
  Fold Change (Pre- to Post-op): 3.59
Rps7
  Fold Change (Pre- to Post-op): 3.864
Rps8
  Fold Change (Pre- to Post-op): 3.076
Rps9
  Fold Change (Pre- to Post-op): 3.018
Rps10
  Fold Change (Pre- to Post-op): 3.708
Rps11
  Fold Change (Pre- to Post-op): 3.225
Rps12
  Fold Change (Pre- to Post-op): 3.585
Rps13
  Fold Change (Pre- to Post-op): 3.214
Rps14
  Fold Change (Pre- to Post-op): 4.273
Rps15
  Fold Change (Pre- to Post-op): 3.233
Rps18
  Fold Change (Pre- to Post-op): 3.269
Rps19
  Fold Change (Pre- to Post-op): 3.136
Rps21
  Fold Change (Pre- to Post-op): 3.557
Rps27
  Fold Change (Pre- to Post-op): 3.214
Rps27a
  Fold Change (Pre- to Post-op): 3.505
Rps27l
  Fold Change (Pre- to Post-op): 4.991
S100a1
  Fold Change (Pre- to Post-op): 3.593
S100a4
  Fold Change (Pre- to Post-op): 3.218
S100a10
  Fold Change (Pre- to Post-op): 3.197
S100a14
  Fold Change (Pre- to Post-op): 6.184
S100a16
  Fold Change (Pre- to Post-op): 3.164
Sall1
  Fold Change (Pre- to Post-op): −3.002
Sar1b
  Fold Change (Pre- to Post-op): 5.1
Sc4mol
  Fold Change (Pre- to Post-op): 4.073
Scoc
  Fold Change (Pre- to Post-op): 3.046
Sdcbp2
  Fold Change (Pre- to Post-op): 4.252
Sdf2
  Fold Change (Pre- to Post-op): 3.001
